Out of some 330,000 compounds screened, about 7,700 (2.3%) were called active. This list was built around the results that the source calls inconclusive (neither active nor inactive); the mix of calls is not that of the screen. Calls follow the shape of the dose curve; as a rule, active = well fitted inhibition curve with a large enough effect; inconclusive = small, poorly fitted or top-dose-only effect, or effect the other way; inactive = flat fitted curve, though single readings scatter. A potency beside an inconclusive call is a rough fit, not a confirmed value.
Test: qHTS screen for small molecules that inhibit ELG1-dependent DNA repair in human embryonic kidney (HEK293T) cells expressing luciferase-tagged ELG1; also: nearly all actives have a fitted effect of over 55% in size
Conditions: HEK293T ELG1-luciferase reporter, luminescence, 16 h, DNA damage induced by 5-fluorouridine; series mostly up to 46.1 µM
Outline: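 Reporter activity after DNA damage by 5-fluorouridine is monitored. Compound-treated cells incubate 16 hr at 37 °C, then ONE-Glo is added for 30 min before luminescence reading.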
Potency is read from the fitted curve at half-maximal effect.

Structure (SMILES) | Potency
O=[N+]([O-])c1ccc(CNc2ccc(Cl)cc2)s1 | inconclusive: 18.3 µM [inhibitor, partial curve]
COc1cccc(/C=N/NC(=O)c2c(C)nc3ccc(Cl)cn23)c1O | inconclusive: 2.91 µM [inhibitor, partial curve, poor fit]
Cc1sc(NC(=O)C2CCCCC2C(=O)O)c(C(N)=O)c1-c1ccc(C(C)(C)C)cc1 (stereo not drawn) | inconclusive: 16.4 µM [activator, single point]
COc1ccc(OC)c(C2C(C(=O)Nc3ccccc3OC)=C(C)Nc3nc(CCCO)nn32)c1 (stereo not drawn) | inconclusive: 18.4 µM [activator, single point]
O=C(CSc1nncs1)NNC(=O)c1ccco1 | inactive
COc1cc([N+](=O)[O-])cc(CN2CCCCC2)c1O | inactive
CC1CCC(NC(=O)CCS(=O)(=O)c2ccc3c(c2)CCN3C(=O)C2CC2)CC1 (stereo not drawn) | inactive
COc1ccc(C(=O)NCCSc2ccccc2C)cc1 | inconclusive: 4.11 µM [activator, full curve]
O=C(Nc1nnc(S(=O)(=O)N2CCCC2)s1)c1cccc([N+](=O)[O-])c1 | inconclusive: 25.9 µM [activator, single point]
COc1ccccc1C(=O)CC(=O)C(=O)Nc1cccc([N+](=O)[O-])c1C | active: 18.3 µM
CC1(c2ccc3noc(-c4ccc(Cl)cc4)c3c2)OCCO1 | inconclusive: 16.4 µM [inhibitor, single point]
CC(C(=O)N=Nc1c(O)[nH]c2ccccc12)n1cnc2ccccc2c1=O (stereo not drawn) | inactive
O=C(Nc1ccc(Br)cc1)c1cnc[nH]1 | inconclusive: 16.4 µM [activator, partial curve]
O=C(CN1C(=O)c2ccccc2S1(=O)=O)c1ccc2c(c1)OCCO2 | inconclusive: 3.66 µM [inhibitor, full curve]
O=C(Nc1ccccc1F)Nc1ccccc1N1CCCCC1 | inconclusive: 4.11 µM [inhibitor, full curve]
O=C(NNC(=O)c1ccc2[nH]c(=O)c(=O)[nH]c2c1)c1cccc(Br)c1 | inactive
CCCCCn1nc(C(=O)N(CC(C)C)c2c(N)n(CCCC)c(=O)[nH]c2=O)c2ccccc2c1=O | inactive
O=C(CSc1nnnn1-c1cccc2c1CCCC2)N1CCCC1 | inactive
O=[N+]([O-])c1cc(Br)c2nsnc2c1N1CCOCC1 | inactive
O=C(Oc1cc2oc(=O)cc(-c3ccccc3)c2cc1Cl)C1CCCCC1 | active: 16.4 µM
Cc1ccc(-c2ccc(=O)n(CC(=O)NCCN(CC(C)C)CC(C)C)n2)cc1 | inactive
COn1c(-c2ccccc2)nc2ccc(Cl)cc21 | inconclusive: 23.1 µM [activator, partial curve]
COc1ccc(-n2nc(C(=O)NCC(=O)N3CC(C)CC(C)C3)c3ccccc3c2=O)cc1OC (stereo not drawn) | inconclusive: 9.2 µM [inhibitor, partial curve, poor fit]
CC(/C=C/c1ccc(O)cc1)=N/O | active: 23.1 µM

Reprinted at random: two entries already listed, in no set order.
Structure (SMILES) | Potency
CCCCCn1nc(C(=O)N(CC(C)C)c2c(N)n(CCCC)c(=O)[nH]c2=O)c2ccccc2c1=O | inactive
O=[N+]([O-])c1ccc(CNc2ccc(Cl)cc2)s1 | inconclusive: 18.3 µM [inhibitor, partial curve]

More results follow:

Structure (SMILES) | Potency
CCc1ccc(NC(=O)CCC(=O)Nc2nnc(C(C)C)s2)cc1 | inconclusive: 10.3 µM [activator, partial curve, poor fit]
COc1ccc(Cn2cccc(NC(=O)Nc3ccc(F)cc3)c2=O)cc1 | inconclusive: 20.6 µM [inhibitor, partial curve]
CCN1/C(=C/C=C/C=C/c2sc3ccccc3[n+]2CC)Sc2ccccc21 | inconclusive: 29.1 µM [inhibitor, single point]
Cc1ccccc1NC(=S)Nc1ccc2cn[nH]c2c1 | inactive
CC1CCc2[nH]c3ccc(C(=O)Nc4ccc(C(=O)N(C)C)cc4)cc3c2C1 (stereo not drawn) | inconclusive: 18.3 µM [activator, partial curve]
OC1CCN(C(=S)Nc2ccc(Nc3ccccc3)cc2)CC1 | inconclusive: 20.6 µM [activator, partial curve]
O=C(Oc1ccc2c3c(c(=O)oc2c1)CCCC3)c1cccs1 | inactive
CC(=O)c1ccc(OCCCC(=O)Nc2cc(Cl)ccc2-n2cncn2)cc1 | inconclusive: 29.1 µM [inhibitor, partial curve, poor fit]
O=C(NCCc1ccccc1)C(c1cccs1)N(C(=O)c1csnn1)C1CC1 (stereo not drawn) | inactive
N=c1c(C(=O)NCCc2ccccc2)cc2c(=O)n3ccccc3nc2n1CCCN1CCOCC1 | inactive
NC(=O)c1c(NC(=S)Nc2ccccc2)sc2c1CCCC2 | inconclusive: 16.4 µM [activator, partial curve]
Cc1cc(C(=O)OCC(=O)c2ccc3c(c2)OCCO3)c(C)o1 | inconclusive: 10 µM [activator, partial curve, poor fit]
O=C1[C@@H]2[C@@H]3C[C@@H]([C@H]4ON=C(c5ccc(Cl)cc5)[C@@H]34)[C@@H]2C(=O)N1C1CCCCC1 | inactive
Cn1c(/C=C/c2ccc(Br)cc2)nc2ccccc2c1=O | inconclusive: 20.6 µM [activator, partial curve]
O=C(COc1ccc(Br)cc1)NCCNC(=O)c1ccncc1 | inactive
O=C(Nc1cccc(O)c1)c1cc(-c2ccccc2Cl)on1 | inconclusive: 3.66 µM [activator, single point]
COCCN(C(=O)COC(=O)/C=C/c1ccc2ccccc2n1)c1c(N)n(Cc2ccccc2)c(=O)[nH]c1=O | active: 11.6 µM
COc1ccc(CS(=O)(=O)CC(C)(O)c2ccccc2Cl)cc1 (stereo not drawn) | inactive
CN1CCN(C(c2cccc(Cl)c2)c2ccccc2Cl)CC1 (stereo not drawn) | inactive
CC(=O)Nc1sc(C)c(C)c1C(=O)OCC(=O)NC(C)c1ccccc1 (stereo not drawn) | inconclusive: 10.3 µM [inhibitor, partial curve]
CCC(=O)/C=C1/Sc2ccccc2N1CC | inactive
O=C(Nc1ccccc1)c1ccc(OC(=O)c2ccccc2)cc1 | inconclusive: 18.3 µM [activator, partial curve]
COc1ccc(C(CC(=O)c2ccccc2)CC(=O)c2ccccc2)cc1OC | inconclusive: 29.1 µM [inhibitor, single point]
Nc1nc(SCc2ccc(Br)cc2)[nH]c(=O)c1-c1ccccc1 | inactive
